Assay results taken from PubChem BioAssay AID504467 (National Center for Advancing Translational Sciences (NCATS), 2011).
“And” between values parts separate entries of the source, which are not always exact repeats. Equal entries are not always repeated. About 7,700 (2.3%) of roughly 330,000 compounds were called active. This list was built around the results that the source calls inconclusive (neither active nor inactive); the mix of calls is not that of the screen. The call rests on the fitted dose curve; in most records, active means well fitted inhibition curve with a large enough effect; inconclusive means small, poorly fitted or top-dose-only effect, or effect the other way; inactive means flat fitted curve, though single readings scatter. Potencies of inconclusive entries are doubtful fits and often do not repeat.
On the % scale 0 is the no-effect control and ±100 the full control effect; potency means the concentration at half of the fitted maximal effect.

Experiment: qHTS screen for small molecules that inhibit ELG1-dependent DNA repair in human embryonic kidney (HEK293T) cells expressing luciferase-tagged ELG1; further: nearly all actives have a fitted effect of over 55% in size
Settings: HEK293T ELG1-luciferase reporter, luminescence, 16 h, DNA damage induced by 5-fluorouridine; activity change, negative = inhibition: at 46.1 µM (top of the series)
Summary of the method: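 In this reporter screen, reduction of luminescence relative to DMSO vehicle indicated activity. Compounds and 5-fluorouridine were added together to 2,000 cells per well, incubated for 16 hr at 37 °C, then developed with ONE-Glo.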
For `Cc1c(OCC(=O)N[C@H](C(=O)O)c2ccccc2)ccc2c3c(c(=O)oc12)CCCC3`, the “activity change, negative = inhibition” value was inactive: 0.0927%. For `COc1ccc(-n2nc(N)c(C(N)=O)n2)cc1`, the Potency was inconclusive: 18.3 µM [activator, partial curve]. For `CCCCOC(=O)n1c(SCC(=O)N(C)C)nc2ccccc21`, the “activity change, negative = inhibition” value was inactive: 3.87%. With `COc1ccc(C(=O)C[n+]2cc(-c3ccc(OC)cc3)n3c2CCCC3)cc1` the Potency was active: 4.61 µM and active: 7.3 µM. In the case of `COc1ccc(-c2nnc(-c3ccccc3)o2)cc1OC`, the Potency is reported as inconclusive: 7.3 µM [activator, partial curve]. With `O=C(N/N=C/c1ccc(N2CCOCC2)cc1)C1CC1` the “activity change, negative = inhibition” value was inactive: 18.7%. In the case of `O=C(CCS(=O)(=O)c1ccccc1)Nc1nnc(-c2ccco2)o1`, the “activity change, negative = inhibition” value is reported as inactive: 11.3%. For `CC(C)(C)C1CCC(OCC(O)CN2CCN(c3ccccc3)CC2)CC1` (configuration not stated), the “activity change, negative = inhibition” value was inactive: 21.5%. In the case of `CC1CC(C)CN(C(=O)CSc2nc3ccsc3c(=O)n2Cc2ccccn2)C1` (configuration not stated), the Potency is reported as inconclusive: 18.4 µM [activator, single point]. In the case of `COc1cc(/C=C/C(=O)c2ccc(C)cc2)ccc1OCC#N`, the Potency is reported as inconclusive: 29.1 µM [inhibitor, single point]. In the case of `Cn1c(=NC(=O)CS(=O)(=O)c2ccc(F)cc2)sc2ccccc21`, the “activity change, negative = inhibition” value is reported as inactive: 16.4%. In the case of `O=C(CSc1nncc2ccccc12)N1CCCCC1`, the “activity change, negative = inhibition” value is reported as inactive: 18.5%. In the case of `Cn1cc(S(=O)(=O)N2CCc3ccccc32)cc1C(=O)NC(C)(C)C`, the Potency is reported as inconclusive: 3.26 µM [inhibitor, single point]. For `O=C1NC(=S)N/C1=C\c1cccnc1`, the Potency was inconclusive: 6.51 µM [inhibitor, partial curve]. In the case of `CCOC(=O)C1=C(C)NC(C)=C(C(=O)OCC)C1c1ccc(Br)o1`, the Potency is reported as inconclusive: 23.1 µM [inhibitor, partial curve, poor fit]. With `COc1cc(OC)cc(C(=O)N2CCC(n3c(C)nc4cc(F)ccc43)CC2)c1` the Potency was inconclusive: 16.4 µM [inhibitor, single point]. With `C=CCn1c(COC)nnc1SCC(=O)c1ccc(F)cc1` the Potency was inconclusive: 22.4 µM [activator, single point]. In the case of `CCOC(=O)c1[nH]c2ccc(F)cc2c1NC(=O)CCN1CCOCC1`, the Potency is reported as inconclusive: 5.17 µM [inhibitor, partial curve, poor fit]. For `COc1ccc(-n2nc(C(=O)NCC(=O)Nc3cc(OC)ccc3OC)c3ccccc3c2=O)cc1`, the Potency was active: 13 µM. For `c1ccc(N2CCN(c3ncccn3)CC2)cc1`, the Potency was inconclusive: 18.4 µM [activator, single point]. With `CC1CCN(C(=O)CCCOc2cc(=O)n(C)c3ccccc23)CC1` the Potency was inconclusive: 5.8 µM [activator, partial curve, poor fit]. With `Cc1cccn2c(CN3CCCC(c4ccccc4)C3)c(C(=O)N3CCOCC3)nc12` (configuration not stated) the Potency was inconclusive: 18.3 µM [inhibitor, partial curve, poor fit]. For `CC(NC(=O)COC(=O)C1CC2CCCC(C1)C2=O)c1ccccc1` (configuration not stated), the “activity change, negative = inhibition” value was inactive: 13.5%. For `COC(=O)c1ccc(Sc2ccc(F)cc2)c(N)c1`, the Potency was inconclusive: 18.4 µM [activator, single point]. With `COC(=O)c1cc(NC(=O)c2ccco2)ccc1N1CCOCC1` the “activity change, negative = inhibition” value was inactive: 27.5%. With `CC(C)=NN/C(N)=N/C(=S)Nc1ccc(C)cc1` the Potency was inconclusive: 20.6 µM [activator, partial curve]. For `COC(=O)c1ccccc1NC(=O)Nc1ccc(Cl)cn1`, the Potency was inconclusive: 16.4 µM [activator, partial curve]. With `Cc1nn(-c2ccccc2)c(Cl)c1C(=O)NCc1cccs1` the “activity change, negative = inhibition” value was inactive: 8.9%. In the case of `Cc1cc(C)nc(Sc2ncnc3c2oc2ccccc23)n1`, the Potency is reported as inconclusive: 29.1 µM [inhibitor, single point]. For `N#Cc1c(NC(=O)CSc2nc(-c3ccccc3)cc(C(F)(F)F)n2)sc2c1CCC2`, the Potency was active: 7.31 µM. In the case of `COc1ccccc1Oc1ccc2c(c1)C(=O)N(c1cccc(O)c1)C2=O`, the Potency is reported as inconclusive: 29.1 µM [activator, partial curve, poor fit]. With `COc1cccc(S(=O)(=O)NCc2ccc3c(c2)OCO3)c1` the “activity change, negative = inhibition” value was inactive: -13.4%. With `O=C(O)CSCC(=O)Nc1ccccn1` the Potency was inconclusive: 9.2 µM [activator, partial curve, poor fit]. With `CCCn1c(CN(C)Cc2ccccc2)nc2c1c(=O)n(C)c(=O)n2C` the Potency was active: 11.6 µM. In the case of `Cc1ccccc1OCC(=O)Nc1ccc(C)c(S(=O)(=O)N2CCCCCC2)c1`, the Potency is reported as active: 1.3 µM. In the case of `CN(C)c1cccc(C(=O)OCCNC(=O)c2cccc(S(=O)(=O)N3CCOCC3)c2)c1`, the Potency is reported as active: 7.3 µM. In the case of `Cc1ccc(OCc2nc(-c3ccccn3)n[nH]2)cc1`, the Potency is reported as inconclusive: 14.6 µM [activator, partial curve]. In the case of `Cc1ccnc(NC(=O)CSc2nnc3c(n2)[nH]c2ccccc23)c1`, the Potency is reported as inconclusive: 23.1 µM [activator, single point]. In the case of `O=C(N/N=C1\CCCc2ccccc21)c1cccc(Br)c1`, the Potency is reported as inconclusive: 16.4 µM [activator, partial curve]. For `CCOc1cc(C(=O)NC(C)CC)cc(OCC)c1OCC` (configuration not stated), the Potency was inconclusive: 29.1 µM [inhibitor, partial curve, poor fit]. For `Cc1ccccc1NC(=O)CN1C(=O)NC2(CCCCCCC2)C1=O`, the “activity change, negative = inhibition” value was inactive: -3.53%. For `Cc1ccc(C(=O)Nc2ccc(S(=O)(=O)NC3=NCCCCC3)cc2)cc1S(=O)(=O)N1CCOCC1`, the Potency was inconclusive: 15.8 µM [inhibitor, single point]. With `CCN(c1ccccc1)S(=O)(=O)c1ccc(Cl)c(NC(=O)COC(=O)c2ccc(O)cc2)c1` the Potency was inconclusive: 32.6 µM [inhibitor, single point]. With `CC(=O)c1cccc(NC(=O)Nc2cc3sccc3n2C)c1` the “activity change, negative = inhibition” value was inactive: -0.353%. For `CC(NC(=O)/C=C/c1ccco1)c1nc2ccccc2n1Cc1c(Cl)cccc1Cl` (configuration not stated), the “activity change, negative = inhibition” value was inactive: -5.6%. With `CNC(=O)/C(=C\C=C\c1ccccc1)NC(=O)c1ccc([N+](=O)[O-])cc1` the Potency was inconclusive: 0.146 µM [inhibitor, single point]. With `Cn1cnc([N+](=O)[O-])c1Sc1ncnc2nc[nH]c12` the Potency was active: 0.206 µM.
